Measurements from US5688767A, “Treatment of endotoxin-associated disorders with cationic peptides” (priority 1996, dated 1997).
Converted amounts (≈) assume the structure as drawn. At least one peptide structure holds a part that was inferred or is arguable (an end, a ring closure or a residue).

What was measured:
[1] = test system: Xanthomonas maltophilia ATCC 13637; experiment: MIC against Gram-negative bacteria; type: cell-based
Excerpt: (§1) Bacteria included the Bort strain of E. coli (Bortolussi, et al., Inf. Immun., 25:293, 1979) that was originally derived from a case of neonatal meningitis, and which is therefore considered a relevant pathogenic strain to study, and the 0111:B4 strain of E. coli (kindly provided by Dr. D. Morrison) which is a standard source of endotoxin. (Kelly, et al., Inf. Immun., 59:4491, 1991). In addition, P. aeruginosa PA01 strain H103, P. aeruginosa M2, P. aeruginosa K799, Eschericha coli UB 1005, Enterobacter cloacae 218S, Salmonella typhimurium MS7953s, Klebsiella pneumoniae ATCC 13883, Xanthomonas maltophilia ATCC 13637, and Acinetobacter calcoacetious 8193 were employed. LPS was obtained from E. coli Bort by the technique of Westphal and Jann, (Westphal, et al., Acad. Press, Inc. NY., 5:83) and from P. aeruginosa H103 by the method of Darveau and Hancock, (Darveau, et al., J. Bacteriol, 155:831, […]). E. coli 0111:B4 LPS was purchased from Sigma.

[2] = test system: Acinetobacter calcoaceticus 8193; experiment: MIC against Gram-negative bacteria; type: cell-based
Excerpt: as §1

[3] = test system: Klebsiella pneumoniae ATCC 13883; experiment: MIC against Gram-negative bacteria; type: cell-based
Excerpt: as §1

[4] = test system: TNF induced by viable bacteria in RAW 264.7 cells; experiment: TNF induction in RAW 264.7 cells by intact bacteria / secreted LPS-protein complexes; type: cell-based, murine; settings: 20 μg of peptide
Description: After an overnight incubation, the media was aspirated from all the wells. 100 μl of Lipopolysaccharide (LPS) was added at 100 ng/100 μl. CEME or CEMA was added at the desired concentration/100 μl to specified wells. […] The plates were then incubated for six hours at 37° C., 5% CO2. The supernatant was then removed from the wells and stored overnight at 4° C. For those wells in which whole bacteria were added directly to the wells, the supernatant was centrifuged in 0.2 μm filter eppendorf tubes for 5 minutes.
In intact cell induction experiments, 10^6 E. coli Bort cells induced 11,967-14,805 Units of TNF per ml in RAW cells.
To examine effects on whole bacterium induction of TNF, bacteria, grown in Luria broth overnight (approximately 1×10^8 /ml) and diluted to […] organisms per ml, and RAW 264.7 cells were each added to separate compartments of a transwell diffusion chamber, which contained a 0.2 μm membrane filter separating the two compartments. Peptides were added, when appropriate, to the bacterium-containing compartment at a final concentration of 20 μg/ml. TNF levels were measured after 6 hours of incubation at 37° C. in 5% CO2. All assays were performed three times with similar results.
TNF was measured in cell culture supernatants and mouse serum on the basis of cytoxicity for L929 fibroblast cell. […] TNF activity was expressed in units as the reciprocal of the dilution of TNF that caused 50% cytotoxicity of L929 cells, as computed using the ELISA+program (Meddata, Inc., New York, N.Y.). In our hands one unit of TNF corresponded to 62.5 pg/ml of recombinant murine TNF (Genzyme Corp.).
In man and animal infections, LPS is probably not released as a purified molecule, but rather in association with other bacterial cell components. To mimic this situation, a model system was employed in which the LPS-protein complexes that are naturally released from bacteria were used as a stimulus to induce TNF production in RAW 264.7 cells. Viable cells of E. coli Bort and 0111:B4 or P. aeruginosa H103 were incubated in a transwell filter unit in which a 0.2 μm membrane filter separated the intact bacteria from the compartment containing the RAW 264.7 cells. […] Addition of 20 μg/ml of peptide to 10^5, 10^6, and 10^7 viable to E. coli 0111:B4 (Table 11) and Bort cells reduced the TNF levels by 90%-96%.

[5] = test system: P. aeruginosa H309 or E. cloacae 218R1; type: cell-based, Pseudomonas aeruginosa; Enterobacter cloacae; settings: 10 μM NPN
Excerpt: The second assay determined membrane permeability by the ability of 1-N-phenylnaphthylamine(NPN), a small fluorescent probe, to insert itself into the membrane. Normally, very little NPN can penetrate the outer membrane, but in the presence of a membrane permeabilizer it can insert into the hydrophobic membrane resulting in an increase in fluorescence (FIGS. 7 and 8). This N-phenylnaphthylamine uptake assay was previously described by Loh, et al., Antimicrobial Agents and Chemo., 26:546, 1984. Cells were prepared exactly the same as for the lysozyme lysis assay. 1-N-phenylnaphthylamine(NPN) was dissolved in acetone at a concentration of 500 μM. NPN fluorescence was measured in a Perkin-Elmer 650-10S fluorescent spectrophotometer using excitation and emission wavelengths set to 350 nm and 420 nm respectively, with slit widths of 5 nm. The assay was standardized by adding 20 μl of NPN (final concentration of 10 μM) and 10 μl of 0.64 mg/ml of polymyxin B (final concentration of 6.4 μg/ml) into 1 ml of cells, and adjusting the resulting fluorescence to read 90% deflection (90 arbitrary units). […] Permeabilizing activity was designated as the total fluorescence minus the fluorescence due to NPN alone. Following the fluorescence measurement, the OD600 of the cells was taken to ensure no significant cell lysis had occurred.

E. coli strain DC2 = experiment: Antibacterial activity on acid-urea gel overlaid with bacteria; type: cell-based, Escherichia coli; settings: ≈10^5 E. coli strain DC2, overnight at 37° C.
Description: A sample of the partially purified CEME protein was electrophoresed on a 15% acid-urea gel, which separates proteins based on charge and mass (Panyim and Chalkey, Arch. Biochem. Biophys., 130:337, 1969). The pH of the buffer is acidic (≈pH 5.0) and the polarity is reversed such that proteins migrate to the cathode. Therefore, the small cationic peptides run relatively quickly through the gel and thus can be easily identified. Antibacterial activity was tested as previously described (Hultmark, Eur. J. Biochem., 106:7, 1980). The gel was incubated in Mueller Hinton broth+0.2M NaPO4 pH 7.4 for 1 hr. It was overlaid with 5 mls of the same media containing 0.6% agar and ≈10^5 E. coli strain DC2, and then again with 5 ml of the same media containing only 0.6% agar. […] Melittin is used as a positive control due to its antibacterial activity and similarity in size and PI values.

[6] = 10^5 viable E. coli 0111:B4 cells
[7] = 10^6 viable E. coli 0111:B4 cells
[8] = 10^7 viable E. coli 0111:B4 cells

CC[C@H](C)[C@H](NC(=O)CNC(=O)[C@@H](NC(=O)[C@H](CCCCN)NC(=O)[C@H](CCCCN)NC(=O)[C@H](Cc1ccccc1)NC(=O)[C@H](CC(C)C)NC(=O)[C@H](CCCCN)NC(=O)[C@H](Cc1c[nH]c2ccccc12)NC(=O)[C@@H](N)CCCCN)[C@@H](C)CC)C(=O)NCC(=O)N[C@@H](C)C(=O)N[C@H](C(=O)N[C@@H](CC(C)C)C(=O)N[C@@H](CCCCN)C(=O)N[C@H](C(=O)N[C@@H](CC(C)C)C(=O)N[C@H](C(=O)N[C@H](C(=O)NCC(=O)N[C@@H](CC(C)C)C(=O)N1CCC[C@H]1C(=O)N[C@@H](C)C(=O)N[C@@H](CC(C)C)C(=O)N[C@H](C(=O)N[C@@H](CO)C(=O)O)[C@@H](C)CC)[C@@H](C)O)[C@@H](C)O)C(C)C)C(C)C [CEME]
MIC [1]: 8 µg/mL (≈ 2.86 µM)
MIC [2]: 2 µg/mL (≈ 0.715 µM)
MIC [3]: 8 µg/mL (≈ 2.86 µM)
Unit of TNF induced [4, 6]: 486 ± 40 units/ml
Unit of TNF induced (% of control) [4, 6]: 3.9%
Unit of TNF induced [4, 7]: 1653 ± 114 units/ml
Unit of TNF induced (% of control) [4, 7]: 5.3%
Unit of TNF induced [4, 8]: 4569 ± 675 units/ml
Unit of TNF induced (% of control) [4, 8]: 5.9%
activity in opening up the membrane to NPN [5]: less active
antibacterial activity on overlaid gel (E. coli strain DC2): zones of clearing
